Small-molecule microarray binding calls

Calls as published in the ROBIN set (doi:10.1002/anie.202211358).

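Each compound is printed as two spots on a slide made to bind it covalently, so it has no test concentration; the read-out is fluorescence of the bound, labelled oligonucleotide. The data file lists only calls. An earlier report of the laboratory on the PreQ1, TPP and SAM-II riboswitches (doi:10.1038/s41467-019-09493-3) used 1 µM RNA for 2 h and required a mean Z-score above 3 (spot signal-to-noise against the whole library), a score well above that on a control array, and duplicate spots agreeing (coefficient of variation under 100); it then also set aside compounds that hit other targets, which this list keeps. The cut-offs behind this list may differ. A missing hit is not proof of no binding, and a hit is not a measured affinity.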 Key: hit = hit, no hit = tested without a hit. Compounds were drawn at random from those tested, without regard to their results. A target missing from an entry has no call listed here.

Oligonucleotides screened, 5′ to 3′:
SAM-II: SAM-II riboswitch RNA pseudoknot, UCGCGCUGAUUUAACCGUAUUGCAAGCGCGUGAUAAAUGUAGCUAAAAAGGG. About 21,000 compounds screened, about 200 hits.
PreQ1: PreQ1 riboswitch RNA pseudoknot, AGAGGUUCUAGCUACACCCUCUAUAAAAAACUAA. From B. subtilis. About 24,000 compounds screened, about 170 hits.
TPP: TPP riboswitch RNA three-way junction, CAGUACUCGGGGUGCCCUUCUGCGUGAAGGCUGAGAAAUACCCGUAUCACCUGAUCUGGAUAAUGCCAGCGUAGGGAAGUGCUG. About 24,000 compounds screened, about 160 hits.

- CSCCCN1CCC(Cc2cccc(CO)c2)C1 (stereo not shown) : SAM-II: no hit; PreQ1: no hit; TPP: no hit
- Cc1sc2ncnc(-n3ncc(C#N)c3N)c2c1C : SAM-II: no hit; PreQ1: no hit; TPP: no hit
- CCN1CCN(Cc2cc(C(=O)N3CCC(N)C3)no2)CC1 (stereo not shown) : SAM-II: no hit; PreQ1: no hit; TPP: no hit
- Cc1ccc2[nH]nc(C(=O)N3CCN(Cc4ccc(C)o4)C(CCO)C3)c2c1 (stereo not shown) : SAM-II: no hit; PreQ1: no hit; TPP: no hit
- CCOC(=O)c1cnc2c(-c3ccc(Cl)cc3)c(COC)nn2c1N : PreQ1: no hit; TPP: no hit
- CC(C)(C)C(N)Cn1cccn1 (stereo not shown) : SAM-II: no hit; PreQ1: no hit; TPP: no hit
- COC(=O)CN1C(=O)C2(C(C#N)=C(N)Oc3c2c(C)nn3-c2ccccc2)c2ccccc21 (stereo not shown) : SAM-II: no hit; PreQ1: no hit; TPP: no hit
- CC(C)n1nc(-c2cc3cc(O)ccc3[nH]2)c2c(N)ncnc21 : SAM-II: no hit; PreQ1: no hit; TPP: no hit
- O=C(NCCO)c1nc(-c2ccccc2)n(-c2cccc(Cl)c2)n1 : PreQ1: no hit; TPP: no hit
- COc1ccc(-c2cc(NCCO)nc(N)n2)c2ccc(C)nc12 : SAM-II: no hit; PreQ1: no hit; TPP: no hit
- CCN(CC)c1nc(N)c(C(=O)NC(C)C)s1 : SAM-II: no hit; PreQ1: no hit; TPP: no hit
- c1ccc2c(c1)oc1c(-c3cn(C[C@H]4CCCN4)nn3)cccc12 : SAM-II: no hit; PreQ1: no hit; TPP: no hit
- O=C(OCCNc1nc(-c2ccccc2)nc2ccccc12)c1cccnc1 : SAM-II: no hit; PreQ1: no hit; TPP: no hit
- CCN(CC1CCN(CCc2ccccc2C)CC1)C(=O)C1C=CCN1 (stereo not shown) : SAM-II: no hit; PreQ1: no hit; TPP: no hit
- Cc1ccc(-c2nn3c(NCC4CCCO4)cc(C)nc3c2C)cc1 (stereo not shown) : PreQ1: no hit; TPP: no hit
- CCCc1cc(N2CCC(NC(C)Cn3cncn3)CC2)nc(C)n1 (stereo not shown) : SAM-II: no hit; PreQ1: no hit; TPP: no hit
- Cc1nnc2c(Nc3ccc(C(=O)O)cc3)nc3ccccc3n12 : PreQ1: no hit; TPP: no hit
- Cc1ccc(C)c(Nc2nc3ccccc3c3nncn23)c1 : SAM-II: no hit; PreQ1: no hit; TPP: no hit
- C=CC[C@@H]1CC=C[C@@H](C)N1C(=O)CN1CCNCC1 : SAM-II: no hit; PreQ1: no hit; TPP: no hit
- CCOc1ccc(Nc2nn3nnnc3c3ccccc23)cc1 : SAM-II: no hit; PreQ1: no hit; TPP: no hit

Repeated from the top, 2 entries:

| compound | SAM-II | PreQ1 | TPP |
|---|---|---|---|
| `CSCCCN1CCC(Cc2cccc(CO)c2)C1` (stereo not shown) | no hit | no hit | no hit |
| `Cc1sc2ncnc(-n3ncc(C#N)c3N)c2c1C` | no hit | no hit | no hit |